Several values for one entry are separate records, joined by “and”; a condition that tells them apart may be missing. Identical values can stand only once.
System: Tetrabenazine-Induced Ptosis
Test: Blockade of Tetrabenazine-Induced Ptosis in Mice (antidepressant activity)
Assay type: in vivo, mice (ICR-DUB strain)
Details: slope function of the ED50 determination (Litchfield and Wilcoxon); IP; Table 1
Protocol: Thirty minutes later the presence or absence of complete eyelid closure (ptosis) is assessed in each animal. For compounds which produced blockage of ptosis in all animals, and ED50 value is obtained using a minimum of three geometrically spaced dosages with five mice/dose.

With `CN(C)CCCN1c2ccccc2CCc2ccccc21` [imipramine] the slope was 2.6 and 2.5 and 2.3.
`CCOc1ccccc1OCC1CNCCO1` (centres unmarked) [viloxazine] gave a slope of 2.5.

Reference: US4242261A, “Production of methylene-cycloamines” (A. H. Robins Company, Inc., priority 1979, dated 1980)
